Source: the supplement of paper PMC11542785
Where a name gives a salt, the structure may show the parent alone. The list shows a part of the results. Many values rest on one well or one pass, so single values are uncertain.

The compounds below were run on Drosophila melanogaster DPAGT1 (Alg7) RNAi eye model (assay: eye size Z-score vs DMSO-treated DPAGT1 model flies; higher = larger eye (suppression of DPAGT1 phenotype)). Details: 5 uM.

Structure (SMILES) | eye size Z-score
CC1CCc2c(N3CCC(O)CC3)c(F)cc3c(=O)c(C(=O)O)cn1c23 (configuration not stated) [Nadifloxacin] | 0.19
Cc1cc(=O)n(-c2ccccc2)n1C [Antipyrine] | 1.62
Clc1ccc(COC(Cn2ccnc2)c2ccc(Cl)cc2Cl)c(Cl)c1 (configuration not stated) [Miconazole] | -0.97
NC12CC3CC(CC(C3)C1)C2 [Adamantamine fumarate] | 1.31
CN[C@H](CC(C)C)C(=O)N[C@H]1C(=O)N[C@@H](CC(N)=O)C(=O)N[C@H]2C(=O)N[C@H]3C(=O)N[C@H](C(=O)N[C@H](C(=O)O)c4cc(O)cc(O)c4-c4cc3ccc4O)[C@H](O)c3ccc(c(Cl)c3)Oc3cc2cc(c3O[C@@H]2O[C@H](CO)[C@@H](O)[C@H](O)[C@H]2O[C@H]2C[C@](C)(N)[C@H](O)[C@H](C)O2)Oc2ccc(cc2Cl)[C@H]1O [Vancomycin hydrochloride] | 0.92
O=C(CCCl)NCc1ccccc1 [Beclamide] | 0.44
CNS(=O)(=O)Cc1ccc2[nH]cc(CCN(C)C)c2c1 [Sumatriptan succinate] | -0.24
NC(=O)c1ncn([C@@H]2O[C@H](CO)[C@@H](O)[C@H]2O)n1 [Ribavirin] | -0.94
CCOC(=O)[C@H](CCc1ccccc1)N[C@@H](C)C(=O)N1[C@H](C(=O)O)C[C@@H]2CCC[C@@H]21 [Ramipril] | -0.11
CCOc1ccc2c(c1)C(C)=CC(C)(C)N2 [Ethoxyquin] | 0.17
CC(C)COCC(CN(Cc1ccccc1)c1ccccc1)N1CCCC1 (configuration not stated) [Bepridil hydrochloride] | -0.08
O=C(O)c1cc(=O)c2ccccc2o1 [Chromocarb] | 1.01
NS(=O)(=O)c1cc(C(=O)O)c(NCc2ccco2)cc1Cl [Furosemide] | -0.13
Cc1cc(C2CCCCC2)n(O)c(=O)c1 [Ciclopirox ethanolamine] | 1.09
COc1cc(C(=O)NS(=O)(=O)c2ccccc2C)ccc1Cc1cn(C)c2ccc(NC(=O)OC3CCCC3)cc12 [Zafirlukast] | 0.18
O=C1NCN(c2ccccc2)C12CCN(CCCC(c1ccc(F)cc1)c1ccc(F)cc1)CC2 [Fluspirilene] | -1.02
CC(C)(C)C(=O)OCOC(=O)[C@@H]1N2C(=O)[C@@H](NC(=O)[C@H](N)c3ccccc3)[C@H]2SC1(C)C [Pivampicillin] | -0.02
CN(C)C(=O)COC(=O)Cc1ccc(OC(=O)c2ccc(NC(=N)N)cc2)cc1 [Camostat mesylate] | 1.41
N=C(N)NC(=O)c1nc(Cl)c(N)nc1N [Amiloride hydrochloride dihydrate] | 0.79
CCCCOC(=O)c1ccc(N)cc1 [Butamben] | 0.1
N[C@@H]1CCCCN(c2c(F)cc3c(=O)c(C(=O)O)cn(C4CC4)c3c2Cl)C1 [Besifloxacin hydrochloride] | 0
CCOc1ccccc1OCC1CNCCO1 (configuration not stated) [Viloxazine hydrochloride] | -0.31
CC[C@H]1OC(=O)[C@H](C)[C@@H](O[C@H]2C[C@@](C)(OC)[C@@H](O)[C@H](C)O2)[C@H](C)[C@@H](O[C@@H]2O[C@H](C)C[C@H](N(C)C)[C@H]2O)[C@](C)(OC)C[C@@H](C)C(=O)[C@H](C)[C@@H](O)[C@]1(C)O [Clarithromycin] | 0.03
NC(=O)Cc1cccc(C(=O)c2ccccc2)c1N [Nepafenac] | -0.1

Structure (SMILES) | eye size Z-score
CC(C)COC(=O)OCN1C(=O)CN(CCN2CC(=O)N(COC(=O)OCC(C)C)C(=O)C2)CC1=O [Sobuzoxane] | -1
COCC1=C(C(=O)OC(C)OC(=O)OC(C)C)N2C(=O)[C@@H](NC(=O)/C(=N\OC)c3csc(N)n3)[C@H]2SC1 (some centres not stated) [Cefpodoxime proxetil] | 0.35
CCN(CC)CCOC(=O)C(c1ccccc1)C1CCCCC1 (configuration not stated) [Drofenine hydrochloride] | 0.59
COc1cc(Cc2cnc(N)nc2N)cc(OC)c1OC [Trimethoprim] | 0.4
CC(C(=O)O)c1ccc(N2CC=CC2)c(Cl)c1 (configuration not stated) [Pirprofen] | 0.06
O=C(CCCN1CCC(O)(c2ccc(Br)cc2)CC1)c1ccc(F)cc1 [Bromperidol] | -0.35
CO[C@@]1(NC(=O)Cc2cccs2)C(=O)N2C(C(=O)O)=C(COC(N)=O)CS[C@@H]21 [Cefoxitin sodium salt] | -1.13
CC(=O)c1ccc2c(c1)N(CCCN1CCC(CCO)CC1)c1ccccc1S2 [Piperacetazine] | -0.5
COC(=O)C1=C(C)NC(C)=C(C(=O)O[C@H]2CCN(Cc3ccccc3)C2)[C@H]1c1cccc([N+](=O)[O-])c1 [Barnidipine Hydrochloride] | 0.26
C=CCOc1ccc(CC(=O)O)cc1Cl [Alclofenac] | -0.48
COc1cc2c(cc1OC)C(=O)C(CC1CCN(Cc3ccccc3)CC1)C2 (configuration not stated) [Donepezil hydrochloride] | -0.06
CCCCC(CC)CN1CN(CC(CC)CCCC)CC(C)(N)C1 (configuration not stated) [Hexetidine] | -0.63
CN(C)c1ccc2nc3ccc(=[N+](C)C)cc-3sc2c1 [Methylene blue] | 0.53
COc1ccc(C2C(=O)c3ccccc3C2=O)cc1 [Anisindione] | 1.29
Cc1cccc(C)c1NC(=O)C1CCCCN1C (configuration not stated) [Mepivacaine hydrochloride] | 0.17
CN1C(C(=O)Nc2ccccn2)=C(O)c2sccc2S1(=O)=O [Tenoxicam] | 1.1
Cc1ncc([N+](=O)[O-])n1CC(O)CCl (configuration not stated) [Ornidazole] | 0.71
C[C@]12CC[C@H]3C(=CCc4cc(O)ccc43)[C@@H]1CCC2=O [Equilin] | -0.48
C=C[C@H]1CN2CC[C@H]1C[C@@H]2[C@@H](O)c1ccnc2ccc(OC)cc12 [Quinidine hydrochloride monohydrate] | -1.29
Cn1c(=O)c2[nH]cnc2n(C)c1=O [Aminophylline] | -0.03
Cc1ccnc2c1NC(=O)c1cccnc1N2C1CC1 [Nevirapine] | 0.04
CN(C)CCC=C1c2ccccc2CCc2ccccc21 [Amitryptiline hydrochloride] | -0.15
Cc1[nH]c(=O)c(C#N)cc1-c1ccncc1 [Milrinone] | 0.56

Three structures from above, ordered by molecular weight, largest number first:
Structure (SMILES) | eye size Z-score
COc1cc2c(cc1OC)C(=O)C(CC1CCN(Cc3ccccc3)CC1)C2 (configuration not stated) [Donepezil hydrochloride] | -0.06
CCCCC(CC)CN1CN(CC(CC)CCCC)CC(C)(N)C1 (configuration not stated) [Hexetidine] | -0.63
CC(C(=O)O)c1ccc(N2CC=CC2)c(Cl)c1 (configuration not stated) [Pirprofen] | 0.06
